Data from doi:10.64898/2025.12.13.694119.
These are yes or no findings as the source states them, for the method shown. Binding seen in cells or lysates may run through a third protein. Some results given as binding are weak or reduced against the parent protein; the word gives no strength.

Chains of the proteins cited; added tags and fusions are not shown. Residues count along the entry.
UniProt P37231, residues 29-505: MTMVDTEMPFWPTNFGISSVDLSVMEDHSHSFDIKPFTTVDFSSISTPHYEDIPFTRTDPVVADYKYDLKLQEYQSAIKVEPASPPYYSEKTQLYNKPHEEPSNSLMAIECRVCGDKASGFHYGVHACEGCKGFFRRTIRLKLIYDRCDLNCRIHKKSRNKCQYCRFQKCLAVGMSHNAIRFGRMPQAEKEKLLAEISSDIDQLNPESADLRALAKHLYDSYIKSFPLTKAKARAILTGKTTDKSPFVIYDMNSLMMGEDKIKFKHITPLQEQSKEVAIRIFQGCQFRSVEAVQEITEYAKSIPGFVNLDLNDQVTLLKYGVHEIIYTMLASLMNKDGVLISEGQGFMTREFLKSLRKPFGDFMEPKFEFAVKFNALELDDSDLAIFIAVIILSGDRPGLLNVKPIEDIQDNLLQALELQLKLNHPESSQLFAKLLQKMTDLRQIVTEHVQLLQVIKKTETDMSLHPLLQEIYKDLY

Molecular target: T1, CDC14B (UniProt O60729)
T1 sequence: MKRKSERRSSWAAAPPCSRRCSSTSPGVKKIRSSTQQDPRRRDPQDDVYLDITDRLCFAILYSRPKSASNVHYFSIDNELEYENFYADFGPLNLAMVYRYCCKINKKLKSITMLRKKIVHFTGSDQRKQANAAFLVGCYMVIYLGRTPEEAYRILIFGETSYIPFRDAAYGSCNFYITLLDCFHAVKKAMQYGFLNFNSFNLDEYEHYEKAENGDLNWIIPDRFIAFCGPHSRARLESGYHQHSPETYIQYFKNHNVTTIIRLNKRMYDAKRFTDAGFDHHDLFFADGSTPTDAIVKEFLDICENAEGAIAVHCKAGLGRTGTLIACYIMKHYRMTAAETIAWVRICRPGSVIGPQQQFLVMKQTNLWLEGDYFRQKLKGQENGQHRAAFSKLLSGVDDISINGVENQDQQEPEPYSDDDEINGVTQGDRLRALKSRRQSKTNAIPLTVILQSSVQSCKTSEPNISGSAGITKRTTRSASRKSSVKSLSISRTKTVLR
Assay: co-IP

binding: binds
Substance: PPARγ1 (from UniProt P37231-2 1-477)
